Assay results as given in PubChem BioAssay AID328 (DTP/NCI, 2004).
The list shows only some results of the screen, not a fair sample: it is rich in T/C values a quarter to a half above the control, in often repeated tests (any T/C) and in doses without a T/C. Further doses and runs are listed elsewhere. T/C gives the treated animals as a percentage of the vehicle group. Some entries give survivors of the animals treated and no T/C: the source holds a T/C of zero for them, seemingly a mark for toxic or unscored doses. Some doses without a T/C left all or most animals alive at the check, yet need not have been tolerated: the source hardly ever lists a survival T/C far under the control, and the zero likely stands for such cases as well. Survivors were counted at the toxicity check, usually on the fifth day, unless a day is given; later deaths do not show. Schedules are NCI's codes, taken here to give the interval after Q, in days (D) or hours (H), and the number of doses after X. Where survival is the endpoint, the PubChem record calls one and a half times the control and up active, and a quarter to a half above the control has no call in these data; cut-offs in other NCI protocols can differ. Some T/C values are followed by the survivors on the day toxicity was checked, most often the fifth; without a count, all were alive then.

Test system: BDF1 mice, P388 leukemia ip, median survival T/C
Test: NCI In Vivo Anticancer Drug Screen. Data for tumor model P388 Leukemia (intraperitoneal) in B6D2F1 (BDF1) mice
Conditions: T/C endpoint: median survival time, higher T/C = longer survival
Method in brief: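 Steps: implant the tumour, treat one group with compound and another with vehicle, record survival, then divide treated by control.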

[1] = dose: 100.0 mg/kg/injection, schedule: Q04DX003 (ip), vehicle: saline
[2] = dose: 400.0 mg/kg/injection, schedule: Q01DX009 (ip), vehicle: saline with Tween-80
[3] = dose: 200.0 mg/kg/injection, schedule: Q01DX009 (ip), vehicle: saline
[4] = dose: 50.0 mg/kg/injection, schedule: Q01DX005 (ip), vehicle: saline with Tween-80
[5] = dose: 100.0 mg/kg/injection, schedule: Q01DX005 (ip), vehicle: saline with Tween-80
[6] = dose: 200.0 mg/kg/injection, schedule: Q01DX005 (ip), vehicle: saline with Tween-80
[7] = dose: 100.0 mg/kg/injection, schedule: Q01DX009 (ip), vehicle: saline with Tween-80
[8] = dose: 4.0 mg/kg/injection, schedule: Q01DX009 (ip), vehicle: saline
[9] = dose: 8.0 mg/kg/injection, schedule: Q01DX009 (ip), vehicle: saline
[10] = dose: 200.0 mg/kg/injection, schedule: Q01DX009 (ip), vehicle: saline with Tween-80
[11] = dose: 100.0 mg/kg/injection, schedule: Q01DX009 (ip), vehicle: Klucel (hydroxypropylcellulose) (HPC)

N=C([Se])c1ncn(C2OC(CO)C(O)C2O)c1N (stereo unspecified)
survivor count [1]: 1 of 6

CC(=O)[C@H]1CC[C@H]2[C@@H]3CCC4=CC(=O)[C@H](C)C[C@]4(C)[C@H]3C(=O)C[C@]12C
survivor count [2]: 6 of 6

CCn1cnc2c(SC)ncnc21
survivor count [1]: 6 of 6
survivor count (dose: 110.0 mg/kg/injection, schedule: Q01DX009 (ip), vehicle: Klucel (hydroxypropylcellulose) (HPC)): 4 of 6
survivor count (dose: 150.0 mg/kg/injection, schedule: Q04DX003 (ip), vehicle: Klucel (hydroxypropylcellulose) (HPC)): 5 of 6
survivor count (dose: 170.0 mg/kg/injection, schedule: Q01DX009 (ip), vehicle: Klucel (hydroxypropylcellulose) (HPC)): 2 of 6
survivor count (dose: 255.0 mg/kg/injection, schedule: Q01DX009 (ip), vehicle: Klucel (hydroxypropylcellulose) (HPC)): 0 of 6
survivor count (dose: 300.0 mg/kg/injection, schedule: Q04DX003 (ip), vehicle: Klucel (hydroxypropylcellulose) (HPC)): 0 of 6

O=CNNC(=O)c1ccccn1
survivor count [3]: 6 of 6
survivor count (dose: 400.0 mg/kg/injection, schedule: Q04DX003 (ip), vehicle: saline with Tween-80): 0 of 6

C1=C(c2ccccc2)OC(c2ccccc2)=C[P+]1(c1ccccc1)c1ccccc1
survivor count [4]: 0 of 5
survivor count [5]: 0 of 5
survivor count [6]: 0 of 5

S=C(N/N=C1\CSCc2ccccc21)Nc1cc(Cl)ccc1Cl
survivor count [7]: 6 of 6

O=C(O)/C=C/C(=O)Nc1cccc(Oc2ccc([N+](=O)[O-])cc2[N+](=O)[O-])c1
survivor count (dose: 400.0 mg/kg/injection, schedule: Q01DX009 (ip), vehicle: saline): 1 of 6

O=S1(=O)C2CCCCC2(N2CCOCC2)C1c1ccccc1 (stereo unspecified)
T/C (dose: 400.0 mg/kg/injection, schedule: Q04DX003 (ip), vehicle: other): 131 % of control

CCC(=O)OCC(=O)[C@]1(O)Cc2c(O)c3c(c(O)c2[C@@H](OC2CC(N)C(O)C(C)O2)C1)C(=O)c1c(OC)cccc1C3=O (stereo partly specified)
survivor count [8]: 6 of 6
survivor count [9]: 5 of 6

C[P+](Cc1ccc([N+](=O)[O-])cc1)(c1ccccc1)c1ccccc1
survivor count (dose: 0.78 mg/kg/injection, schedule: Q01DX009 (ip), vehicle: Klucel (hydroxypropylcellulose) (HPC)): 6 of 6
survivor count (dose: 3.12 mg/kg/injection, schedule: Q01DX009 (ip), vehicle: Klucel (hydroxypropylcellulose) (HPC)): 5 of 6
survivor count (dose: 6.25 mg/kg/injection, schedule: Q01DX009 (ip), vehicle: Klucel (hydroxypropylcellulose) (HPC)): 6 of 6
survivor count (dose: 25.0 mg/kg/injection, schedule: Q04DX003 (ip), vehicle: Klucel (hydroxypropylcellulose) (HPC)): 6 of 6

CC=C(/C(=C/C)c1ccc(O)cc1)c1ccc(O)cc1
T/C [7]: 136 % of control
T/C [10]: 136 % of control [5 of 6 alive]
T/C [2]: 127 % of control

Cc1nc2ccccc2c(=O)n1/N=C/c1ccco1
survivor count [10]: 0 of 6

CCC(C)C(=O)OC1C(=O)OC2CC3C(C)=CC(=O)C(O)C3(C)C3C4(O)OCC23C1C(C)C4O (stereo unspecified)
T/C (dose: 0.12 mg/kg/injection, schedule: Q01DX009 (ip), vehicle: saline with Tween-80): 141 % of control
T/C (dose: 0.25 mg/kg/injection, schedule: Q01DX009 (ip), vehicle: saline with Tween-80): 138 % of control
T/C (dose: 0.5 mg/kg/injection, schedule: Q01DX009 (ip), vehicle: saline with Tween-80): 148 % of control
T/C (dose: 0.5 mg/kg/injection, schedule: Q01DX009 (ip), vehicle: saline): 133 % of control
T/C (dose: 1.0 mg/kg/injection, schedule: Q01DX009 (ip), vehicle: saline with Tween-80): 138 % of control
T/C (dose: 2.0 mg/kg/injection, schedule: Q01DX009 (ip), vehicle: saline with Tween-80): 148 % of control
T/C (dose: 4.0 mg/kg/injection, schedule: Q01DX009 (ip), vehicle: saline with Tween-80): 127 % of control [5 of 6 alive]
T/C [8]: 126 % of control
T/C [9]: 134 % of control

CCOC(=O)C(C(=O)OCC)C(=O)c1cc(-c2ccc(Cl)c(Cl)c2)nc2c(Cl)cc(Cl)cc12
survivor count [11]: 6 of 6

C1=C(c2ccccc2)OC(c2ccccc2)=C(c2ccccc2)[P+]1(c1ccccc1)c1ccccc1
survivor count [4]: 0 of 5
survivor count [5]: 0 of 5
survivor count [6]: 0 of 5

Clc1ccc(CNc2ncnc3[nH]ncc23)cc1Cl
survivor count [7]: 6 of 6
survivor count [10]: 4 of 6
survivor count [2]: 1 of 6

Cc1ccc(OCc2c(COc3ccc(Cl)cc3)sc3ccc(Cl)cc23)cc1
survivor count (dose: 50.0 mg/kg/injection, schedule: Q04DX003 (ip), vehicle: saline with Tween-80): 6 of 6

c1ccc([B-]2([C+]3CCCCC3)N3CCCCC3C3CCCCN32)cc1 (stereo unspecified)
survivor count (dose: 50.0 mg/kg/injection, schedule: Q01DX009 (ip), vehicle: Klucel (hydroxypropylcellulose) (HPC)): 4 of 6
survivor count [11]: 0 of 6

O=[N+]([O-])c1ccc(NCc2ccccc2)nc1
T/C [10]: 125 % of control [5 of 6 alive]

C[C@H]1[C@H](C)CC[C@]2(CO)CC[C@]3(C)C(=CC[C@@H]4[C@@]5(C)CC[C@@H](O)C(C)(C)[C@@H]5CC[C@]43C)[C@H]12
T/C (dose: 100.0 mg/kg/injection, schedule: Q01DX010 (ip), vehicle: acetone): 125 % of control
T/C (dose: 200.0 mg/kg/injection, schedule: Q01DX010 (ip), vehicle: acetone): 125 % of control

CCSC1=C(SCC)C1SCC
T/C (dose: 100.0 mg/kg/injection, schedule: Q04DX003 (ip), vehicle: Klucel (hydroxypropylcellulose) (HPC)): 126 % of control
survivor count (dose: 200.0 mg/kg/injection, schedule: Q04DX003 (ip), vehicle: Klucel (hydroxypropylcellulose) (HPC)): 2 of 6
survivor count (dose: 400.0 mg/kg/injection, schedule: Q04DX003 (ip), vehicle: Klucel (hydroxypropylcellulose) (HPC)): 0 of 6

COc1cc(NS(=O)(=O)c2ccccc2)ccc1C
survivor count (dose: 200.0 mg/kg/injection, schedule: Q01DX009 (ip), vehicle: Klucel (hydroxypropylcellulose) (HPC)): 6 of 6
survivor count (dose: 400.0 mg/kg/injection, schedule: Q01DX009 (ip), vehicle: Klucel (hydroxypropylcellulose) (HPC)): 6 of 6

CC(C)n1cc2c(N)ncnc2n1
survivor count [3]: 5 of 6
survivor count (dose: 400.0 mg/kg/injection, schedule: Q04DX003 (ip), vehicle: saline): 3 of 6

c1ccc2c3ccn4cc5c(cc4c-3nc2c1)CCCC5
survivor count (dose: 75.0 mg/kg/injection, schedule: Q01DX010 (ip), vehicle: saline): 1 of 6
survivor count (dose: 150.0 mg/kg/injection, schedule: Q01DX010 (ip), vehicle: saline): 0 of 6
survivor count (dose: 300.0 mg/kg/injection, schedule: Q01DX010 (ip), vehicle: saline): 0 of 6

OC(CC1CCCCN1)c1cc2c(Cl)cc(Cl)cc2c2cc(C(F)(F)F)ccc12 (stereo unspecified)
survivor count [7]: 6 of 6
survivor count [10]: 0 of 6

O=[N+]([O-])c1cc([N+](=O)[O-])c(Br)cc1Cl
survivor count (dose: 40.0 mg/kg/injection, schedule: Q01DX009 (ip), vehicle: Klucel (hydroxypropylcellulose) (HPC)): 0 of 6
